In paper PMC4165403:
No constants are given. Whether binding was seen depends on the method and setting. In cells and extracts the contact can be indirect. Some binding calls cover weakened binding; strength is not graded here.

The chains behind the UniProt entries cited, without tags or fusion partners. Where a name states a change or a piece, a line headed by the entry shows the natural chain unless it says otherwise. A line that says so, or that is headed by a name, gives the form on record, which may keep a tag or linker.
GFP-tagged Abi1 (Q8IZP0, form named): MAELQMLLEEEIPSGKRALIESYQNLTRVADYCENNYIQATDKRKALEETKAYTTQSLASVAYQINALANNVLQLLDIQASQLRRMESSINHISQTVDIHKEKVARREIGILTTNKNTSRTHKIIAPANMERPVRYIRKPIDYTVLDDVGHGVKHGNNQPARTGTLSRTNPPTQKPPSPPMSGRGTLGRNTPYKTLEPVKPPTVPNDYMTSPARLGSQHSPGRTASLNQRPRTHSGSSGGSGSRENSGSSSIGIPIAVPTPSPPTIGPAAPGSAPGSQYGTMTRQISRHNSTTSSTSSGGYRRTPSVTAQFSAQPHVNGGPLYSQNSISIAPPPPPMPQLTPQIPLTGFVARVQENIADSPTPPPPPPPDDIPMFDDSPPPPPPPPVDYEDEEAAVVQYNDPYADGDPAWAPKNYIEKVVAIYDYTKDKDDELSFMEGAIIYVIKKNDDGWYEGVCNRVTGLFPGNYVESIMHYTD
GFP-tagged Abi1ΔEVH1 (Q8IZP0, form named): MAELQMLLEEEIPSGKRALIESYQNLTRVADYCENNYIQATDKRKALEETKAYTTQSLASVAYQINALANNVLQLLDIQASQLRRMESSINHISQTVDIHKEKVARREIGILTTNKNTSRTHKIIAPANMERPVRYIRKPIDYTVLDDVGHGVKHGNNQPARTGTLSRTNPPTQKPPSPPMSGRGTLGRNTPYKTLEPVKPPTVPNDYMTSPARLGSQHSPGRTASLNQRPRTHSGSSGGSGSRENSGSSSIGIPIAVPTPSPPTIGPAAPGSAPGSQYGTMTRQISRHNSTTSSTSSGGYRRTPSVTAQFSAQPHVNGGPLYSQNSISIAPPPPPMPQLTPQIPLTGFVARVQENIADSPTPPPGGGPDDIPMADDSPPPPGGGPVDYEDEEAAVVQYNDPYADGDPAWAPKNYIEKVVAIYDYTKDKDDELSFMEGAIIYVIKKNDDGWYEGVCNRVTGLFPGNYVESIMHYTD
UniProt Q96F07: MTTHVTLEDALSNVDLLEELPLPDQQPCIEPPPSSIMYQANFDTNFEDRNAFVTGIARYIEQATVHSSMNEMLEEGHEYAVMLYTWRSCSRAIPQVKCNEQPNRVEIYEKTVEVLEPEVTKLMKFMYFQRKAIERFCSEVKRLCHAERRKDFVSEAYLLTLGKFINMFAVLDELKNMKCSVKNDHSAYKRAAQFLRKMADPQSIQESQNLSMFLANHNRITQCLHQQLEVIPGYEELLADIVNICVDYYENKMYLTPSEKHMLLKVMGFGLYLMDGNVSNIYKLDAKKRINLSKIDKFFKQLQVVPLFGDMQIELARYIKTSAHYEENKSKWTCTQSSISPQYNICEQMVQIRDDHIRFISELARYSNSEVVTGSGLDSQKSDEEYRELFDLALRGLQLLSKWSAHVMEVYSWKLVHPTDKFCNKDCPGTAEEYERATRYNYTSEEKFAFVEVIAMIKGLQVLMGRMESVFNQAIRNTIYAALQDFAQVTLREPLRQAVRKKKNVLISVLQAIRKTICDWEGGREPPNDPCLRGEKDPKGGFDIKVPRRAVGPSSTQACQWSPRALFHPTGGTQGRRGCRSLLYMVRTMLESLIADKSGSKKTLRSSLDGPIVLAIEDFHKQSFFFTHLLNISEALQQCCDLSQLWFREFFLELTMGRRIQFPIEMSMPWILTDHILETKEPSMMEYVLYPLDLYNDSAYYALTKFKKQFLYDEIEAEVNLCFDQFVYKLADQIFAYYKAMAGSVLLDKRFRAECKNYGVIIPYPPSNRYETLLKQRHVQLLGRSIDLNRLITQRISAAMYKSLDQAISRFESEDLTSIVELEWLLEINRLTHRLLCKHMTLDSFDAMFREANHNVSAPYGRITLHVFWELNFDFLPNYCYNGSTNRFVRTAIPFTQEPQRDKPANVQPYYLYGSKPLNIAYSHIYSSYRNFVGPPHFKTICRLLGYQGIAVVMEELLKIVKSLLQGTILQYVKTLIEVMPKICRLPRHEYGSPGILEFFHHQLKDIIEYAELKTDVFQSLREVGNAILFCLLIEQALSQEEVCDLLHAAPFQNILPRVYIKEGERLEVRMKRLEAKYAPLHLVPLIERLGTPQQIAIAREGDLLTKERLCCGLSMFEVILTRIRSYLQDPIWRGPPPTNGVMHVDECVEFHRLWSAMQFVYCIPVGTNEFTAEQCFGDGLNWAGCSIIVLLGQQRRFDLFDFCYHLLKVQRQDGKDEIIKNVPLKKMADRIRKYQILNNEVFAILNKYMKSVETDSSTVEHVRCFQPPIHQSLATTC

Experiments:
GFP-tagged Abi1 (human) = GFP-tagged Abi1 (human) (UniProt Q8IZP0); experiment: co-IP; immunoprecipitation of GFP-tagged Abi1 or Abi1ΔEVH1 from lysates of transfected cells, immunoblot for Mena and PIR121
[1] = molecular target: GFP-tagged Abi1ΔEVH1 (human) (UniProt Q8IZP0); experiment: as above

Substance: PIR121 (in lysate of cells expressing GFP-Abi1) (from UniProt Q96F07 1-1278)
- binding (GFP-tagged Abi1 (human)): binds
- binding [1]: binds
